For at least one compound, name, drawing or mass did not settle the structure.
Columns and labels:
Type in all cases: cell-based, human
K562 or PANC-1 cells = assay: Cytokine release assay: IFN-γ ELISA after co-culture of NKR-2 T cells with cancer cells; conditions: LY294002 dose-dependent
Procedure: Fresh NKR-2 T cells and/or control tCD19 cells were incubated with K562 or PANC-1 cells at a ratio of 1:1 in X-Vivo 15 containing 5% HS. Following an incubation of 24 h supernatants were harvested and IFN-γ measured by ELISA (R&D Systems, SIF50) according to manufacturer's protocol. As a positive control cells were activated with PMA (Sigma-Aldrich, P8139-5MG) and ionomycin (Sigma-Aldrich, 10634-1MG). To assess the background levels of activation the cells received no stimulus.
Antibody Inhibition Assay NKR-2 T cells were incubated with 1 μg/mL of NKG2D blocking antibody, isotype control or no antibody for 24 hours and subsequently NKR-2 T cells mediated secretion of IFN-γ measured. Similarly, NKR-2 cells were co-cultured with cancer cells in the presence of antibody and cytokine secretion measured.

NKR-2 T cells [1] = assay: NKR-2 T cell viability (after cryopreservation, storage at 4° C. or culture); conditions: NKR-2 T cells manufactured with PI3K inhibitor
NKR-2 T cells [2] = assay: CD4/CD8 distribution of NKR-2 T cells at harvest (flow cytometry); conditions: inhibitor or antibody added during expansion from day 4
NKG2D (CD314) = assay: Flow cytometry of NKG2D (CD314) cell surface expression on NKR-2 T cells
Procedure: (§1) (A) MFI of NKG2D expression on NKR-2 T cells treated or not with increasing concentrations of LY294002. Data shown are mean±SD of N=3 independent donors. (B) Transduced T cells were cultured in complete X-vivo (100 IU/ml IL-2) supplemented or not with increasing concentrations of LY294002 for expansion. T cells were analyzed 96 h after seeding for fold expansion relative to the initial cell seeding density. Data shown are mean±SD of N=3 independent donors. (C) Viability of cells after cryopreservation. NKR-2 T cells were produced in presence of increasing concentration of LY294002. After production, cells were harvested, washed, and formulate for cryopreservation. After cryopreservation, cells were thawed using a water bath and resuspended in Plasmalyte/Human Serum Albumin (HSA) 5%. Cells viability was directly assessed after thawing (T0 h) or after 6 hours at 4° C. in Plasmalyte/HSA5% (T6 h) (N=[…]) (D) NKR-2 T cells were produced in presence of increasing concentration of LY294002. […] After 48 hours, cell viability was assessed using trypan blue staining (N=3) and normalized for the number of cells at cryopreservation (E) tCD19 T cells were co-cultured with NKR-2 T cells generated from the same donor in presence of increasing concentrations of blocking Ab (from 0 (−) to 10 μg/ml). […] Following a 24 h incubation, supernatants were harvested and IFN-γ measured (N=3). […]

NKR-2 T cells [3] = assay: Memory phenotype of NKR-2 T cells (CD62L/CD45RA flow cytometry); conditions: cultured with LY294002
control tCD19 T cells = assay: Proliferation (fold expansion) of control tCD19 T cells with PI3K inhibitor; conditions: treated with PI3K inhibitor during culture, vs untreated tCD19 cells
NKR-2 T cells [4] = assay: Fold expansion / cell yield of NKR-2 (NKG2D CAR) T cells during manufacturing culture
Procedure: as §1, with “After cryopreservation, cells were thawed using a water bath and resuspended in Plasmalyte/Human Serum Albumin (HSA) 5%.” left out
FIG. 9: NKR-2 T cells Ab blockade process adaptation restores CD4/CD8 ratio. […] PANC-1 viability was assessed every 2 hours by the IncuCyte S3 device. […]

Compound: O=c1cc(N2CCOCC2)oc2c(-c3ccccc3)cccc12 [LY294002]
- IFN-γ production of NKR-2 T cells produced using PI3K inhibitor (K562 or PANC-1 cells): greater quantities of IFN-γ
- cell viability after cryopreservation (NKR-2 T cells [1]): increase in cell viability
- cell viability when stored at 4° C. for 48 hours (NKR-2 T cells [1]): increase in cell viability
- CD4/CD8 ratio on day 8 (NKR-2 T cells [2]): consistently skewed towards a CD8 population
- cell surface expression of NKG2D on NKR-2 T cells (NKG2D (CD314); increasing concentrations of LY294002 in transduction and expansion phases): reduced in a dose-dependent manner
- reversibility of NKG2D reduction (NKG2D (CD314); removal of LY from the culture): reversible
- memory phenotype (CD62L+/CD45RA−) of NKR-2 T cells (NKR-2 T cells [3]): increased CD62L^+/CD45RA^− phenotype
- proliferative capacity of control tCD19 T cells (control tCD19 T cells): clear reduction in the proliferative capacity
- cell yield of NKR-2 T cells with the inhibitor (NKR-2 T cells [4]; increasing concentrations of LY294002, 96 h expansion): no discernable improvement in cell yield

Compound: CO[C@H]1C[C@@H]2CC[C@@H](C)[C@@](O)(O2)C(=O)C(=O)N2CCCC[C@H]2C(=O)O[C@H]([C@H](C)C[C@@H]2CC[C@@H](O)[C@H](OC)C2)CC(=O)[C@H](C)/C=C(\C)[C@@H](O)[C@@H](OC)C(=O)[C@H](C)C[C@H](C)/C=C/C=C/C=C/1C [rapamycin]
- expansion with downstream inhibitors of the PI3K pathway (NKR-2 T cells [4]; compared to cells without inhibition of NKG2D signaling): expansion is increased
